{"sequences": {"note": "Amino acid sequences for entries named in this document (tags omitted).", "UniProt P46935": "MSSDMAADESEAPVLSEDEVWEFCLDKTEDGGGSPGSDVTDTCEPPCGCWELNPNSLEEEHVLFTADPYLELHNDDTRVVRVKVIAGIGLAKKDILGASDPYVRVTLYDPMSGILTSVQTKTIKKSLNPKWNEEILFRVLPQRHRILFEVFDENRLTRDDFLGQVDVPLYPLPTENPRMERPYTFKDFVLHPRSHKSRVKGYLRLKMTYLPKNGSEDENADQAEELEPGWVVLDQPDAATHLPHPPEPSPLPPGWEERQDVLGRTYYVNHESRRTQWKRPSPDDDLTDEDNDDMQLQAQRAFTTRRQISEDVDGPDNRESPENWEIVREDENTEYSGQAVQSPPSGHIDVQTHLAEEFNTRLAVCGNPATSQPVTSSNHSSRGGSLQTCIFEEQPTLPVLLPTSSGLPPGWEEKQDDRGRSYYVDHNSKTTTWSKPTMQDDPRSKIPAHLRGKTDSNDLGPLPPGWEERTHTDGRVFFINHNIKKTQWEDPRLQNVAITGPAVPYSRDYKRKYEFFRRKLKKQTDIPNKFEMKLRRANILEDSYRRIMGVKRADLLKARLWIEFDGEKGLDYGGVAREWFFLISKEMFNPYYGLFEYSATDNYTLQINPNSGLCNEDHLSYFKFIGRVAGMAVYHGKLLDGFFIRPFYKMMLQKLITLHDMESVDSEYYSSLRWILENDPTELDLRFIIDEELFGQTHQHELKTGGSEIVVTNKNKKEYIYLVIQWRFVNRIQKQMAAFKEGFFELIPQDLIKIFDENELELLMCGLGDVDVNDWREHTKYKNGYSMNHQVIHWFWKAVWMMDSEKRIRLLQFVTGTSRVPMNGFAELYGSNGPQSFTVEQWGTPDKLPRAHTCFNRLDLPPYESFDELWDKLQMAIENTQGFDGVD", "UniProt B1AVY7": "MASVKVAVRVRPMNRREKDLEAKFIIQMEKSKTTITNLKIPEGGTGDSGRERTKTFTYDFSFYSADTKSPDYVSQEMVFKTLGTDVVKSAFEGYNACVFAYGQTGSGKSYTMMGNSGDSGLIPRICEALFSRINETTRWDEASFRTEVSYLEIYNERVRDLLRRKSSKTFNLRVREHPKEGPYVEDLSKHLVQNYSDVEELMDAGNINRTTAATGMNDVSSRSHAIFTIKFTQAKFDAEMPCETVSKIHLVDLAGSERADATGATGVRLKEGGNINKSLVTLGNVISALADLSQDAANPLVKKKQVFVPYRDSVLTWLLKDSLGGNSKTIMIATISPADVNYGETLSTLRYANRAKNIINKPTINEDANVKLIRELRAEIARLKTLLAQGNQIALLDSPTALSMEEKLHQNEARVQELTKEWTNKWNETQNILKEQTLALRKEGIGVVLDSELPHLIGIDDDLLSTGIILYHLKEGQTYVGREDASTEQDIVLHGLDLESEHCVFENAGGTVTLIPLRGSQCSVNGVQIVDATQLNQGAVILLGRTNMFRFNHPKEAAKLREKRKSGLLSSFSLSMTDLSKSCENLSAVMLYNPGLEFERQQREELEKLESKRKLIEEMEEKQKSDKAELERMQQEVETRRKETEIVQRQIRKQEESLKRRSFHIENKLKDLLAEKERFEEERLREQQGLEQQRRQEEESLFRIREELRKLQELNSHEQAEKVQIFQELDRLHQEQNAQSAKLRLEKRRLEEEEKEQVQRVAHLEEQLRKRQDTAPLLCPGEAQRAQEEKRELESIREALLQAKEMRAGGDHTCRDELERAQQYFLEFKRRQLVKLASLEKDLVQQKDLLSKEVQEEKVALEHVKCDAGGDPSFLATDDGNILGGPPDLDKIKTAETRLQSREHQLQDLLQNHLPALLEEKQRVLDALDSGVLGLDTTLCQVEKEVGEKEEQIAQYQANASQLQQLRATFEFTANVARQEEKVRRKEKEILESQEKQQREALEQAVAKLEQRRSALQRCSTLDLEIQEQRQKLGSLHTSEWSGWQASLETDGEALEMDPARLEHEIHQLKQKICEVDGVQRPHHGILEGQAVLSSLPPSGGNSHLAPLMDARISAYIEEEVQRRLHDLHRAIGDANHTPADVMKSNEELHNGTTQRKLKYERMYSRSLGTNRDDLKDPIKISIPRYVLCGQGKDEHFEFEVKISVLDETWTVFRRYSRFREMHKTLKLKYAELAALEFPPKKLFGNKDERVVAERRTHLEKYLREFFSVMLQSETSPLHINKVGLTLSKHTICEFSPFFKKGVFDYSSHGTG"}, "source": "paper PMC9018756", "target": "NEDD4 (mouse (endogenous in NCU10K)) (UniProt P46935)", "assay": "affinity purification with mass spectrometry; NEDD4 precipitated with anti-NEDD4 on protein G dynabeads from LIGHT SILAC NCU10K lysate (non-denaturing buffer, 1% NP40, 150 mM NaCl, 2 h at 4 °C); compared to IgG control IP from HEAVY SILAC cells; LC-MS/MS; over 1.5-fold enrichment", "note": "These are yes or no findings as the source states them, for the method shown. Binding seen in cells or lysates may run through a third protein. A yes stands for co-enrichment or nearness to the bait. Other partners may have been found."}
{"substance": "KIF16B (from UniProt B1AVY7 1-1312)", "values": [{"measurement": "binding", "result": "binds"}]}
